PubChem BioAssay AID1259405 – NCATS – 2018
Aim: 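Mouse-designed siRNAs used to find CHO productivity engineering targets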 (primary screen). Cells: Chinese hamster CHO-K1 ovary cells with stable secreted eGFP expression. Reagents: single siRNA against mouse genes, 0.8 pmol siRNA per well (2 µl of 400 nM stock). Duration: 3 days. Read-out: 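Percent of the per-plate non-targeting control median for intracellular GFP per well by laser scanning cytometry and for cell viability by ATP luminescence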. Direction: GFP, % of control: higher = more GFP per well, higher productivity; viability (ATP), % of control: higher = more viable cells (more ATP). Call rule: 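a knock-down is called active if GFP reaches 120% or more of non-targeting control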.
The whole screen tested about 50,000 reagents; below is a part drawn at random. About 4,000 of them (8%) count as active. 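Mouse siRNA library applied to hamster cells; one well for each siRNA.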 A number with no mark means an inactive call. No sequences are given here.

gene | PubChem SID | GFP, % of control | viability (ATP), % of control
Slc38a11 | SID363542903 | 81 | 68.3
Slc38a11 | SID363546420 | 54.1 | 43.5
Slc38a11 | SID363548176 | 72.4 | 85.5
Ifnk | SID363541434 | 68 | 76.4
Ifnk | SID363556061 | 94.3 | 36.1
Ifnk | SID363566350 | 64.2 | 47.2
Nox3 | SID363568693 | 85.7 | 47.4
Nox3 | SID363576085 | 43 | 55.5
Nox3 | SID363578901 | 65.4 | 64
Stfa2l1 | SID363555331 | 117 | 100
Stfa2l1 | SID363563992 | 45.1 | 74.2
Stfa2l1 | SID363587538 | 109 | 106
Fancd2 | SID363539937 | 92.9 | 81.3
Fancd2 | SID363561238 | 104 | 80.3
Fancd2 | SID363564274 | 93.7 | 84
Ier5l | SID363543858 | 104 | 93.9
Ier5l | SID363551594 | 81 | 39.2
Ier5l | SID363559199 | 96.5 | 135
Kars1 | SID363569619 | 64.2 | 89.3
Kars1 | SID363577363 | 45.9 | 56.4
Kars1 | SID363578771 | 81.6 | 81.3
Ndufc1 | SID363572932 | 116 | 95.3
Ndufc1 | SID363577508 | 159 (active) | 55.7
Ndufc1 | SID363581028 | 104 | 71
Tln1 | SID363573354 | 74.2 | 90.6
Tln1 | SID363588593 | 85.1 | 88.9
Or10z1 | SID363544669 | 78.2 | 63.1
Or10z1 | SID363550997 | 116 | 76.8
Or10z1 | SID363557546 | 107 | 70.9
Eloc | SID363556356 | 44.1 | 55.1
Eloc | SID363586806 | 68.9 | 97.9
Eloc | SID363588914 | 66.6 | 54.4
Coq9 | SID363569127 | 61.7 | 83.9
Coq9 | SID363583559 | 63.6 | 87
Mri1 | SID363545532 | 100 | 80.5
Mri1 | SID363549045 | 40.4 | 47.2
Mri1 | SID363562851 | 57.8 | 57.8
Hdc | SID363572869 | 74.1 | 87.7
Hdc | SID363577445 | 78.9 | 58.6
Hdc | SID363580965 | 58.2 | 47.8
Cacul1 | SID363543952 | 27.6 | 37.5
Cacul1 | SID363551688 | 13 | 48.4
Cacul1 | SID363559293 | 58.8 | 75.2
Dclk3 | SID363572250 | 65.9 | 141
Dclk3 | SID363574010 | 0.0238 | 42.3
Tspan5 | SID363541885 | 65.9 | 74
Tspan5 | SID363553477 | 112 | 90.6
Tspan5 | SID363566801 | 46.9 | 69.9
Fam228b | SID363542748 | 60.5 | 63.1
Fam228b | SID363546265 | 83.6 | 59.3
Fam228b | SID363548021 | 70.6 | 75.4
Plau | SID363574348 | 95.3 | 103
Plau | SID363575404 | 60.5 | 38.3
Plau | SID363579980 | 67.2 | 62.5
Slc36a4 | SID363555050 | 49.2 | 68.3
Slc36a4 | SID363568497 | 51.9 | 65.5
Slc36a4 | SID363586556 | 68.5 | 75.7
Tmem9b | SID363543497 | 43.8 | 55.7
Tmem9b | SID363552990 | 29.8 | 63.2
Tmem9b | SID363558838 | 68.1 | 74.2
Pcyox1l | SID363550050 | 66.8 | 90.7
Pcyox1l | SID363564559 | 75.2 | 60.1
Pcyox1l | SID363588104 | 105 | 132
Slc44a2 | SID363547828 | 20.3 | 40.1
Slc44a2 | SID363558597 | 83 | 62.9
Slc44a2 | SID363560355 | 82.1 | 98.1
Lix1 | SID363540216 | 70.4 | 93.1
Lix1 | SID363541968 | 54.9 | 69.4
Lix1 | SID363566884 | 55.6 | 38
Ifna2 | SID363541426 | 71.5 | 53.7
Ifna2 | SID363556053 | 97.4 | 70.5
Ifna2 | SID363566342 | 78.8 | 46.7
Armcx3 | SID363546543 | 66.5 | 61.4
Armcx3 | SID363548299 | 79.9 | 86
Armcx3 | SID363560477 | 81.9 | 85
Rab5b | SID363541615 | 88.1 | 88.8
Rab5b | SID363553207 | 175 (active) | 68.5
Rab5b | SID363566531 | 77.8 | 77
Chrnb1 | SID363574514 | 101 | 83.3
Chrnb1 | SID363575570 | 123 (active) | 106
Chrnb1 | SID363580146 | 72.7 | 66.6
Klk14 | SID363574515 | 84.6 | 70.6
Klk14 | SID363575571 | 45.4 | 72.5
Klk14 | SID363580147 | 48.8 | 57.1

Sorted by “GFP, % of control” (high to low): some entries from above
gene | PubChem SID | GFP, % of control | viability (ATP), % of control
Eloc | SID363586806 | 68.9 | 97.9
Eloc | SID363588914 | 66.6 | 54.4
Coq9 | SID363583559 | 63.6 | 87
Coq9 | SID363569127 | 61.7 | 83.9
Eloc | SID363556356 | 44.1 | 55.1
